From patent publication US20040072205A1, “Methods for treating neuronal disorders” (priority 2002, published 2004)
At least one compound was matched to its structure with a doubt left.

How the values were obtained:
[1] = test system: SH-SY5Y neuroblastoma cells; test: Western blot of caspase activation and cytosolic cytochrome c in SH-SY5Y cells exposed to THG; type: cell-based, Human
[2] = test system: isolated rat liver mitochondria; test: Minocycline-mitochondria co-titration, PT induction / swelling (transmittance 520 nm)
[3] = biological target: T1, caspase-1 (Homo sapiens, UniProt P29466); details: Chen et al., Nat. Med. 2000; cited from earlier work
T1 sequence (P29466 120-297 limits assumed): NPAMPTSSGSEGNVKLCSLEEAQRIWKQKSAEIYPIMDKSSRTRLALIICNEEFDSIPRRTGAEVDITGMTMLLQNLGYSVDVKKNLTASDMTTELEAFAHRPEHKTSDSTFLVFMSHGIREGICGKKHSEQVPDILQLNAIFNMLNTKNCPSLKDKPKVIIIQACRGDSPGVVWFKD
T1 sequence (P29466 317-404 limits assumed): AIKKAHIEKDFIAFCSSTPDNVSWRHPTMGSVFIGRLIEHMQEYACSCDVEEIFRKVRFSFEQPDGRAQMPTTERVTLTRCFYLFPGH

[4] = test system: spinal cords of ALS mice; test: Cytochrome c release and caspase-3 activation in spinal cords of ALS mice (western blot); type: in vivo, mouse
[5] = test system: purified mouse liver mitochondria; test: In vitro cytochrome c release, purified mouse liver mitochondria; details: 0.5 mg/ml mitochondria
[6] = biological target: T2, caspase-3 (Homo sapiens, UniProt P42574); details: Chen et al., Nat. Med. 2000; cited from earlier work
T2 sequence (P42574 29-175 limits assumed): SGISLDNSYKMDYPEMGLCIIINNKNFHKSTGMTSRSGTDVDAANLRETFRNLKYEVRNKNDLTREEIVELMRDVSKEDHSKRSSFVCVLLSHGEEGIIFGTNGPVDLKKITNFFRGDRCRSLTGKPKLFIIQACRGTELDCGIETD
T2 sequence (P42574 176-277 limits assumed): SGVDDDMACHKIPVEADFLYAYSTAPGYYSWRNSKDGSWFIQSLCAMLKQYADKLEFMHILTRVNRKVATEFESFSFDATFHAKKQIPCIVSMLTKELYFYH

Compound: CN(C)c1ccc(O)c2c1C[C@H]1C[C@H]3[C@H](N(C)C)C(O)=C(C(N)=O)C(=O)[C@@]3(O)C(O)=C1C2=O [Minocycline]
- caspase-3 activation [1]: inhibition of caspase-9 and of caspase-3 activation
- caspase-9 activation [1]: inhibition of caspase-9
- cytochrome c release into cytosolic fraction ([1]; 6 hours after THG): inhibition
- samples protected ([2]; 0.03 mg/ml protein, 2 μM minocycline (66 nmol/mg protein)): 12 of 12
- samples protected ([2]; 0.1 mg/ml protein, 4 μM minocycline (40 nmol/mg protein)): 12 of 12
- concentration giving inhibition of mitochondrial swelling ([2]; co-titration of minocycline and mitochondria, FIG. 3F): 2 to 4 µM
- minocycline level giving inhibition of mitochondrial swelling, per protein ([2]; co-titration, FIG. 3F): ≥ 40 nmol/mg protein
- direct inhibition of caspase-1 activity [3]: does not directly inhibit
- caspase-3 activation in spinal cords ([4]; ALS mice, western blot for activated caspase-3): inhibits caspase-3 activation
- release of cytochrome c in spinal cord ([4]; injected 10 days starting at eight weeks of age, n=5, P<0.05): significantly inhibited
- Bid-induced cytochrome c release ([5]; 100 ng Bid, one hour): inhibited
- calcium-induced cytochrome c release ([5]; 100 μM CaCl2, 30 min): inhibited
- direct inhibition of caspase-3 activity [6]: does not directly inhibit
